# In PubChem BioAssay AID1671190 (National Center for Advancing Translational Sciences (NCATS), 2021):
# Amino acid sequences for entries named in this document (tags omitted). A change or cut given only in a name is not applied to a line headed by its entry.
# UniProt P18054: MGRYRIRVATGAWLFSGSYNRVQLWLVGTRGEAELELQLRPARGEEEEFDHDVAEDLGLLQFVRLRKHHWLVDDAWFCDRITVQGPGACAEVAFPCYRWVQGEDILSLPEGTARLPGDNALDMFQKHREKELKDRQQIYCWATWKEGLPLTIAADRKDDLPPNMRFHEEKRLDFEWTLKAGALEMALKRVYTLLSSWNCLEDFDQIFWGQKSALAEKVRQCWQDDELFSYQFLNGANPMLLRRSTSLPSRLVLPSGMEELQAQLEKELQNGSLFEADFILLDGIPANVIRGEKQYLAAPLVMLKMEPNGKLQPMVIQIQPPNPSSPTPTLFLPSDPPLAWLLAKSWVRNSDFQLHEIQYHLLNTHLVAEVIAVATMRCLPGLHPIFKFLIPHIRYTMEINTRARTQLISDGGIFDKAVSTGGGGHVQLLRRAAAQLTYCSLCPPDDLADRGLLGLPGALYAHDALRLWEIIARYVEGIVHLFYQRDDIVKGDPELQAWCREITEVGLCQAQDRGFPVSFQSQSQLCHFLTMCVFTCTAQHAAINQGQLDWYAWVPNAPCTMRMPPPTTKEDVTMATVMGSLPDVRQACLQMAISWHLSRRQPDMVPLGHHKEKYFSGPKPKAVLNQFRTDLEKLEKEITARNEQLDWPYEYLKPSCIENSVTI
# The whole screen tested about 580,000 compounds, of which about 6,100 (1.1%) were called active. The shares of active, inactive and inconclusive entries below differ from those in the screen. The call rests on the fitted dose curve; in most records, active means well fitted inhibition curve with a large enough effect; inconclusive means small, poorly fitted or top-dose-only effect, or another doubt; inactive means no such curve, though single readings can be large or run the other way. Potencies beside an inconclusive call are fits to weak or partial responses and may not hold up.
# Biological target: Polyunsaturated fatty acid lipoxygenase ALOX12 (Homo sapiens) (UniProt P18054)
# Experiment: Primary qHTS assay for inhibitors of human arachidonate 12S-lipoxygenase (ALOX12): Round 2
# Conditions: purified 12hLO, xylenol orange hydroperoxide absorbance; series mostly up to 108 µM
# Summary of the method: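 Purified human 12hLO at 150 nM in 25 mM Hepes, 0.01% Triton X-100, pH 7.0, preincubated 15 min at room temperature with compound. Reaction started with 40 uM arachidonic acid, 30 min at room temperature. Hydroperoxide measured by Fe-xylenol orange, 573/405 nm absorbance ratio.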
# Potency means the concentration at half of the fitted maximal effect.
row,Compound,Potency
1,COc1ccccc1OC(=O)COc1ccc(C)cc1Br,"inconclusive: 158 µM [inhibitor, partial curve, poor fit]"
2,C=C(Br)CNCCCC,inactive
3,CC(=O)N1CCC(C(=O)N2CCC3(CC2)NC(=O)N(c2ccc(F)cc2)N3)CC1,"inconclusive: 1.58 µM [inhibitor, full curve, poor fit]"
4,O=C(CC1CCCC1)N1CCN(S(=O)(=O)c2c(F)cccc2F)CC1,"inconclusive: 112 µM [inhibitor, partial curve, poor fit]"
5,CC(C)(C)OC(=O)C[C@H]1C/C=C\C[C@@H](CC(=O)N(CCO)Cc2ccccc2)C(=O)N[C@@H](Cc2ccccc2)COC1=O,"inconclusive: 100 µM [inhibitor, single point]"
6,CCOC(=O)c1ccc(CN2CCCC(C)(C(=O)NCCOC)C2)cc1 (centres undefined),inactive
7,O=C(COc1ccc(Cl)cc1)Nc1cccc(S(=O)(=O)NC2=NCCCCC2)c1,"inconclusive: 31.6 µM [inhibitor, single point]"
8,CCC(=O)Nc1ccccc1-c1nc2ccccc2n(CC(=O)c2ccc(C)cc2)c1=O,"inconclusive: 44.7 µM [inhibitor, partial curve, poor fit]"
9,COc1cccc(Cn2nnc3c(=O)[nH]c(C4CCN(C(=O)c5ccccc5Cl)CC4)nc32)c1,"inconclusive: 0.224 µM [inhibitor, full curve, poor fit]"
10,NC(=S)Nc1ccc(Cl)c(Cl)c1,"inconclusive: 112 µM [inhibitor, single point]"
11,Cc1cccc(OCC2(CNCc3cnn(C)c3)C[C@@H](O)[C@@H](O)C2)n1 (some centres undefined),active: 28.2 µM
12,COc1ccc(OC)c(CN(C(=O)c2ccc(F)cc2)C2CC2)c1,inactive
13,CC1=C(C(N)=O)C(c2ccccc2Br)n2ncnc2N1 (centres undefined),inactive
14,CCOC(=O)C1CCN(CC(C)(C)NS(=O)(=O)c2ccccc2)CC1,"inconclusive: 1.58 µM [inhibitor, full curve]"
15,COc1cccc(C(=O)N2CC(=O)N(c3ccc(C)cc3)CC2C)c1OC (centres undefined),inactive
16,CCOc1ccccc1C(=O)OCC(=O)Nc1cccc(S(=O)(=O)N2CCCC2)c1,inactive
17,O=C(NCc1ccccc1Br)c1cnc2sc(N3CCCCCC3)nn2c1=O,"inconclusive: 126 µM [inhibitor, partial curve, poor fit]"
18,COc1ccc(-c2coc3cc(OCCN4CCCCC4)ccc3c2=O)cc1,"inconclusive: 89.1 µM [inhibitor, single point]"
19,COc1ccccc1NC(=O)N1CC(=O)N2[C@H](CO)[C@@H](c3ccc(Br)cc3)[C@H]2C1,"inconclusive: 50.1 µM [inhibitor, partial curve, poor fit]"

# 3 compounds from above, ordered by formula weight, rising:
row,Compound,Potency
1,COc1ccccc1OC(=O)COc1ccc(C)cc1Br,"inconclusive: 158 µM [inhibitor, partial curve, poor fit]"
7,O=C(COc1ccc(Cl)cc1)Nc1cccc(S(=O)(=O)NC2=NCCCCC2)c1,"inconclusive: 31.6 µM [inhibitor, single point]"
9,COc1cccc(Cn2nnc3c(=O)[nH]c(C4CCN(C(=O)c5ccccc5Cl)CC4)nc32)c1,"inconclusive: 0.224 µM [inhibitor, full curve, poor fit]"
